{
  "source": "patent US8076285B2",
  "about": "(Aicuris GmbH & Co. KG, priority 2006, dated 2011)",
  "test": "general procedure: Fmoc solid-phase peptide synthesis; 2-chlorotrityl chloride resin (Iris Biotech), 0.85 mmol/g; TBTU/DIEA",
  "key": {"[1]": {"conditions": "late stage modification step, trifluoroacetate"}, "[2]": {"conditions": "coupling step, trifluoroacetate"}, "[3]": {"conditions": "cyclisation step, trifluoroacetate"}},
  "data": [
    {"substance": "[(3R)-3-Hydroxy-L-leucyl]-L-leucyl-D-arginyl-L-isoleucyl-L-allothreonyl-glycyl-L-seryl-L-serine bistrifluoroacetate", "values": [
      {"measurement": "step yield", "setting": "[1]", "result": "99% of theory"}
    ]},
    {"substance": "[(3R)-N^2-(Benzyloxycarbonyl)-3-{(tert-butoxycarbonyl)amino}-L-phenylalanyl]-[(3R)-3-hydroxy-L-leucyl]-L-leucyl-D-arginyl-L-leucyl-L-allothreonyl-glycyl-L-seryl-L-serine trifluoroacetate", "values": [
      {"measurement": "step yield", "setting": "[2]", "result": "43% of theory"}
    ]},
    {"substance": "[3-tert-Butyl-D-alanyl]-[3-tert-butyl-L-alanyl]-[(3R)-3-amino-L-phenylalanyl]-[(3R)-3-hydroxy-L-leucyl]-L-leucyl-D-arginyl-L-isoleucyl-L-allothreonyl-D-alanyl-[(3S)-3-hydroxy-L-asparaginyl]-L-serine C^1.11-N^3.3-lactam bistrifluoroacetate", "values": [
      {"measurement": "step yield", "setting": "[1]", "result": "65% of theory"}
    ]},
    {"substance": "D-Leucyl-L-leucyl-[(3R)-3-amino-L-phenylalanyl]-[(3R)-3-hydroxy-L-leucyl]-L-leucyl-D-arginyl-L-isoleucyl-L-threonyl-glycyl-L-asparaginyl-L-serine C^1.11-N^3.3-lactam bistrifluoroacetate", "values": [
      {"measurement": "step yield", "setting": "[1]", "result": "56.1% of theory"}
    ]},
    {"substance": "[(3R)-3-Hydroxy-L-leucyl]-L-leucyl-D-arginyl-L isoleucyl-L-allothreonyl-D-seryl-L-seryl-L-serine bistrifluoroacetate", "values": [
      {"measurement": "final purity (method not given)", "setting": "[1]", "result": 33, "unit": "% pure"}
    ]},
    {"substance": "[3-tert-Butyl-D-alanyl]-[3-tert-butyl-L-alanyl]-[(3R)-3-amino-L-phenylalanyl]-[(3R)-3-hydroxy-L-leucyl]-L-leucyl-D-arginyl-L-isoleucyl-L-seryl-glycyl-L-seryl-L-serine C^1.11-N^3.3-lactam", "values": [
      {"measurement": "step yield", "setting": "late stage modification step, from compound 436A, trifluoroacetate", "result": "54% of theory"}
    ]},
    {"substance": "[3-tert-Butyl-D-alanyl]-[3-tert-butyl-L-alanyl]-[(3R)-3-amino-L-phenylalanyl]-[(3R)-3-hydroxy-L-leucyl]-L-leucyl-[(2R)-2,4-diaminobutyryl]-L-isoleucyl-L-allothreonyl-glycyl-L-seryl-L-serine C^1.11—N^3.3-lactam", "values": [
      {"measurement": "step yield", "setting": "late stage modification step, from compound 453A, trifluoroacetate", "result": "40% of theory"}
    ]},
    {"substance": "[3-tert-Butyl-D-alanyl]-[3-tert-butyl-L-alanyl]-[(3R)-3-amino-3-(pyridin-3-yl)-L-alanyl]- [(3R)-3-hydroxy-L-leucyl]-L-leucyl-D-arginyl-L-isoleucyl-L-allothreonyl-glycyl-[(3S)-3-hydroxy-L-asparaginyl]-L-serine C^1.11-N^3.3-lactam", "values": [
      {"measurement": "step yield", "setting": "late stage modification step, from compound 470A, trifluoroacetate", "result": "56% of theory"}
    ]},
    {"substance": "[3-tert-Butyl-D-alanyl]-[3-tert-butyl-L-alanyl]-[(3R)-3-amino-L-phenylalanyl]-[(3R)-3-hydroxy-L-leucyl]-[3-trimethylsilyl-L-alanyl]-D-arginyl-L-isoleucyl-L-allothreonyl-glycyl-L-seryl-L-serine C^1.11-N^3.3-lactam", "values": [
      {"measurement": "step yield", "setting": "late stage modification step, from compound 435A, trifluoroacetate", "result": "42% of theory"}
    ]},
    {"substance": "[(3R)-3-Hydroxy-L-leucyl]-L-leucyl-[N^5-(benzyloxycarbonyl)-D-ornithyl]-L-isoleucyl-L-allothreonyl-glycyl-L-asparaginyl-L-serine Trifluoroacetate", "values": [
      {"measurement": "step yield", "setting": "[1]", "result": "79.3% of theory"}
    ]},
    {"substance": "D-Phenylalanyl-L-phenylalanyl-[(3R)-3-amino-L-alanyl]-[(3R)-3-hydroxy-L-leucyl]-L-leucyl-D-arginyl-L-isoleucyl-L-allothreonyl-glycyl-[(3S)-3-hydroxy-L-asparaginyl]-L-serine C^1.11N^3.3-lactam bistrifluoroacetate", "values": [
      {"measurement": "step yield", "setting": "[1]", "result": "23.3% of theory"}
    ]},
    {"substance": "[(3R)-3-Hydroxy-L-leucyl]-L-norvalyl-D-arginyl-L isoleucyl-L-allothreonyl-glycyl-L-seryl-L-serine bistrifluoroacetate", "values": [
      {"measurement": "final purity (method not given)", "setting": "[1]", "result": 35, "unit": "% pure"}
    ]},
    {"substance": "[(3R)-3-Hydroxy-L-leucyl]-L-leucyl-D-arginyl-L-isoleucyl-L-threonyl-glycyl-L-asparaginyl-L-serine bistrifluoroacetate", "values": [
      {"measurement": "step yield", "setting": "late stage modification step, bistrifluoroacetate", "result": "99.5% of theory"}
    ]},
    {"substance": "[(3R)-3-Amino-L-phenylalanyl]-[(3R)-3-hydroxy-L-leucyl]-L-leucyl-D-arginyl-L-isoleucyl-L-allothreonyl-glycyl-L-alanyl-L-serine C^1.9-N^3.1-lactam bishydrochloride", "values": [
      {"measurement": "step yield", "setting": "[1]", "result": "99% of theory"}
    ]},
    {"substance": "[(3R)-N^2-(Benzyloxycarbonyl)-3-amino-L-phenylalanyl]-[(3R)-3-hydroxy-L-leucyl]-L-leucyl-D-arginyl-L-valyl-L-allothreonyl-glycyl-L-seryl-L-serine C^1.9-N^3.1-lactam trifluoroacetate", "values": [
      {"measurement": "cyclisation yield", "setting": "cyclisation step, from 364A, trifluoroacetate", "result": "91% of theory"},
      {"measurement": "final purity (method not given)", "setting": "[3]", "result": 41, "unit": "% pure"}
    ]},
    {"substance": "[(3R)-N^2-(Benzyloxycarbonyl)-3-{(tert-butoxycarbonyl)amino}-L-phenylalanyl]-[(3R)-3-hydroxy-L-leucyl]-L-leucyl-D-arginyl-L-isoleucyl-L-seryl-glycyl-[(3S)-3-hydroxy-L-asparaginyl]-L-serinate trifluoroacetate", "values": [
      {"measurement": "step yield", "setting": "[2]", "result": "80% of theory"}
    ]},
    {"substance": "[3-tert-Butyl-D-alanyl]-[3-tert-butyl-L-alanyl]-[(3R)-3-amino-L-phenylalanyl]-[(3R)-3-hydroxy-L-leucyl]-L-valyl-D-arginyl-L-isoleucyl-L-allothreonyl-glycyl-L-seryl-L-serine C^1.11-N^3.3-lactam", "values": [
      {"measurement": "step yield", "setting": "late stage modification step, from compound 447A, trifluoroacetate", "result": "36% of theory"}
    ]},
    {"substance": "[(3R)-N^2-(Benzyloxycarbonyl)-3-{(tert-butoxycarbonyl)amino}-L-phenylalanyl]-[(3R)-3-hydroxy-L-leucyl]-L-norvalyl-D-arginyl-L-isoleucyl-L-allothreonyl-glycyl-L-alanyl-L-serine trifluoroacetate", "values": [
      {"measurement": "step yield", "setting": "[2]", "result": "23% of theory"}
    ]},
    {"substance": "[(3R)-N^2-(tert-Butoxycarbonyl)-3-hydroxy-L-leucyl]-L-leucyl-D-arginyl-L-isoleucyl-L-allothreonine trifluoroacetate", "values": [
      {"measurement": "step yield", "setting": "[1]", "result": "55% of theory"}
    ]},
    {"substance": "[3-tert-Butyl-D-alanyl]-[3-tert-butyl-L-alanyl]-[(3R)-3-amino-L-phenylalanyl]-[(3R)-3-hydroxy-L-leucyl]-L-leucyl-D-arginyl-L-isoleucyl-L-leucyl-glycyl-L-seryl-L-serine C^1.11-N^3.3-lactam", "values": [
      {"measurement": "step yield", "setting": "late stage modification step, from compound 452A, trifluoroacetate", "result": "46% of theory"}
    ]},
    {"substance": "[(3R)-3-Hydroxy-L-leucyl]-L-leucyl-(N^5-benzyloxycarbonyl-D-ornithyl)-L-isoleucyl-L-allothreonyl-glycyl-L-seryl-L-serine bistrifluoroacetate", "values": [
      {"measurement": "final purity (method not given)", "setting": "[1]", "result": 28, "unit": "% pure"}
    ]},
    {"substance": "[(3R)-N^2-(Benzyloxycarbonyl)-3-{(tert-butoxycarbonyl)amino}-L-phenylalanyl]-[(3R)-3-hydroxy-L-leucyl]-L-leucyl-D-arginyl-L-isoleucyl-L-allothreonyl-glycyl-[(3S)-3-hydroxy-L-asparaginyl]-L-alanine trifluoroacetate", "values": [
      {"measurement": "step yield", "setting": "[2]", "result": "34% of theory"}
    ]},
    {"substance": "[(3R)-N^2-(Benzyloxycarbonyl)-3-{(tert-butoxycarbonyl)amino}-L-phenylalanyl]-[(3R)-3-hydroxy-L-leucyl]-L-leucyl-D-arginyl-L-isoleucyl-L-allothreonyl-D-alanyl-[(3S)-3-hydroxy-L-asparaginyl]-L-serine trifluoroacetate", "values": [
      {"measurement": "step yield", "setting": "[2]", "result": "31% of theory"}
    ]},
    {"substance": "[(3R)-N^2-(Benzyloxycarbonyl)-3-{(tert-butoxycarbonyl)amino}-L-phenylalanyl]-[(3R)-3-hydroxy-L-leucyl]-L-leucyl-D-arginyl-[3-trimethylsilyl-L-alanlyl]-L-allothreonyl-glycyl-L-seryl-L-serine trifluoroacetate", "values": [
      {"measurement": "step yield", "setting": "[2]", "result": "33% of theory"}
    ]},
    {"substance": "[(3R)-3-Amino-L-phenylalanyl]-[(3R)-3-hydroxy-L-leucyl]-L-leucyl-D-arginyl-L-iso-leucyl-L-allothreonyl-glycyl-L-phenylalanyl-L-serine C^1.9-N^3.1-lactam bishydrochloride", "values": [
      {"measurement": "step yield", "setting": "[1]", "result": "99% of theory"}
    ]},
    {"substance": "[3-tert-Butyl-D-alanyl]-[3-tert-butyl-L-alanyl]-[(3R)-3-amino-L-phenylalanyl]-[(3R)-3-hydroxy-L-leucyl]-L-leucyl-D-lysyl-L-isoleucyl-L-allothreonyl-glycyl-L-seryl-L-serine C^1.11-N^3.3-lactam", "values": [
      {"measurement": "step yield", "setting": "late stage modification step, from compound 454A, trifluoroacetate", "result": "62% of theory"}
    ]},
    {"substance": "[3-tert-Butyl-D-alanyl]-[3-tert-butyl-L-alanyl]-[(3R)-3-amino-L-phenylalanyl]-[(3R)-3-hydroxy-L-leucyl]-L-isoleucyl-D-arginyl-L-isoleucyl-L-allothreonyl-glycyl-L-seryl-L-serine C^1.11-N^3.3-lactam", "values": [
      {"measurement": "step yield", "setting": "late stage modification step, from compound 450A, trifluoroacetate", "result": "70% of theory"}
    ]},
    {"substance": "[(3R)-N^2-(Benzyloxycarbonyl)-3-amino-L-phenylalanyl]-[(3R)-3-hydroxy-L-leucyl]-L-leucyl-D-arginyl-L-isoleucyl-L-allothreonyl-glycyl-L-asparaginyl-L-serine C^1.9-N^3.1-lactam trifluoroacetate", "values": [
      {"measurement": "cyclisation yield", "setting": "[3]", "result": "75% of theory"}
    ]},
    {"substance": "[(3R)-N^2-(Benzyloxycarbonyl)-3-amino-L-phenylalanyl]-[(3R)-3-hydroxy-L-leucyl]-L-leucyl-D-arginyl-L-leucyl-L-allothreonyl-glycyl-L-seryl-L-serine C^1.9-N^3.1-lactam trifluoroacetate", "values": [
      {"measurement": "cyclisation yield", "setting": "cyclisation step, from 365A, trifluoroacetate", "result": "87% of theory"},
      {"measurement": "final purity (method not given)", "setting": "[3]", "result": 39, "unit": "% pure"}
    ]},
    {"substance": "Benzyl [(3R)-N^2-(tert-butoxycarbonyl)-3-hydroxy-L-leucyl]-L-leucyl-D-arginyl-L-isoleucyl-L-allothreonyl-glycyl-L-phenylalanyl-L-serinate trifluoroacetate", "values": [
      {"measurement": "step yield", "setting": "[2]", "result": "33% of theory"}
    ]},
    {"substance": "[(3R)-3-Hydroxy-L-leucyl]-L-leucyl-[(2R)-2-amino-4-benzyloxycarbonylaminobutyryl]-L-isoleucyl-L-allothreonyl-glycyl-L-seryl-L-serine bistrifluoroacetate", "values": [
      {"measurement": "final purity (method not given)", "setting": "[1]", "result": 64, "unit": "% pure"}
    ]}
  ]
}
